Data: PubChem BioAssay AID2685 (National Center for Advancing Translational Sciences (NCATS), 2010)
Some of the results follow. Further columns of the screen follow, without active or inactive calls. The list favours compounds with an active or inconclusive main result. Words in brackets tell the shape of the fitted curve; partial curves, single points and poor fits give uncertain potencies.

Assay: qHTS Assay for Lipid Storage Modulators in Drosophila S3 Cells;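 on cell number change: cells counted by Cell Tracker Red CMTPX staining in the red channel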
Conditions: BODIPY lipid droplet fluorescence, 18-24 h; for cell number change: measured here: cell count max response, cells fed with added oleic acid
Method in brief: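 Laser-scanning cytometry quantifies lipid droplet accumulation (500–530 nm total intensity; droplet/cell object ratio) in oleic acid-fed (400 uM added) Drosophila S3 cells treated with a concentration series. 20 uM Triacsin C defined 100% inhibition.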

[1] = measured here: lipid fluorescence (Fed channel) AC50, cells fed with added oleic acid
[2] = measured here: cell number channel AC50, cells fed with added oleic acid

SMILES	AC50 [1]	cell number change [%]	AC50 [2]
CC(C)(C)C1CCC(=NNc2nc3ccccc3[nH]2)CC1 (centres undefined)	0.82 µM [rising, full curve]		
COc1cc(NS(=O)(=O)c2cc(C)ccc2OC)c(OC)cc1Cl	1.46 µM [rising, full curve, poor fit]	-9.66	
CCn1c2c(c3cc(Br)ccc31)CCC/C2=N\O	0.82 µM [rising, full curve, poor fit]	-43.7	29.1 µM [falling, single point]
COc1ccc(N(CC(=O)NCCSCc2c(F)cccc2Cl)S(C)(=O)=O)cc1OC	20.6 µM [rising, partial curve]	36.9	13 µM [rising, partial curve]
CCCCn1c(CN2CCN(CCO)CC2)nc2ccccc21	29.1 µM [falling, single point]	-40.8	29.1 µM [falling, single point]
CC(=O)Oc1ccc2cc(-c3ccccc3)c(=O)oc2c1	4.11 µM [rising, full curve, poor fit]	12.1	
COc1ccc(C2(c3ccc(OC)cc3)NC(=O)N(CC(=O)NC3CCCC3)C2=O)cc1		-8.5	
CCCC(=O)Nc1ccc(N2CCCCC2)cc1	0.58 µM [falling, partial curve, poor fit]	8.69	
CCN(CC)S(=O)(=O)c1ccc2oc(C(=O)NCC3COc4ccccc4O3)c(C)c2c1 (centres undefined)	0.58 µM [falling, full curve]		
Cn1cnnc1SCC(=O)NCCc1ccc(Cl)cc1Cl		14	
CC(C)c1ccc(C2/C(=C(/O)c3ccc(F)cc3)C(=O)C(=O)N2CCCN2CCOCC2)cc1 (centres undefined)	23.1 µM [rising, single point]	29.1	
C/C(N)=C(/C#N)C(=O)CN1CCCCC1	2.31 µM [falling, full curve]	-17.6	
COc1ccc(C2C(C#N)=C(N)OC3=C2C(=O)CCC3)cc1OC (centres undefined)	0.116 µM [rising, full curve, poor fit]	17.2	
COc1ccc(-c2nc(CS(=O)CC(=O)NCc3ccc(C)cc3)c(C)o2)cc1OC (centres undefined)	6.51 µM [rising, single point]		
CN1C(=O)C(CC(=O)Nc2ccccc2F)N(NC(=O)c2ccc(Br)cc2)C1=S (centres undefined)		-37.1	25.9 µM [falling, partial curve, poor fit]
O=C1CCC(C(=O)N2CCSCC2)CN1CCc1cccc(F)c1 (centres undefined)	0.00517 µM [rising, full curve, poor fit]	1.51	
CC(=O)c1c(C)oc2ccc(NS(=O)(=O)c3ccc(F)cc3C)cc12		21.1	
O=S(=O)(c1ccc(F)cc1)N1CCC2(CC1)OCCN2S(=O)(=O)c1cccs1	20.6 µM [falling, single point]	-10.7	
Cn1c(N)c(C(=O)COC(=O)CCC(=O)c2ccc(F)cc2)c(=O)n(C)c1=O		9.89	
CCN(CC)S(=O)(=O)c1ccc2c(c1)nc(CCC(=O)Nc1ccc3c(c1)OCO3)n2C	0.411 µM [rising, full curve]	27.1	

Copied from the listing, 12 compounds:
SMILES	AC50 [1]	cell number change [%]	AC50 [2]
CCn1c2c(c3cc(Br)ccc31)CCC/C2=N\O	0.82 µM [rising, full curve, poor fit]	-43.7	29.1 µM [falling, single point]
COc1ccc(N(CC(=O)NCCSCc2c(F)cccc2Cl)S(C)(=O)=O)cc1OC	20.6 µM [rising, partial curve]	36.9	13 µM [rising, partial curve]
CCCCn1c(CN2CCN(CCO)CC2)nc2ccccc21	29.1 µM [falling, single point]	-40.8	29.1 µM [falling, single point]
CC(=O)Oc1ccc2cc(-c3ccccc3)c(=O)oc2c1	4.11 µM [rising, full curve, poor fit]	12.1	
COc1ccc(C2(c3ccc(OC)cc3)NC(=O)N(CC(=O)NC3CCCC3)C2=O)cc1		-8.5	
CCCC(=O)Nc1ccc(N2CCCCC2)cc1	0.58 µM [falling, partial curve, poor fit]	8.69	
CCN(CC)S(=O)(=O)c1ccc2oc(C(=O)NCC3COc4ccccc4O3)c(C)c2c1 (centres undefined)	0.58 µM [falling, full curve]		
Cn1cnnc1SCC(=O)NCCc1ccc(Cl)cc1Cl		14	
CC(C)c1ccc(C2/C(=C(/O)c3ccc(F)cc3)C(=O)C(=O)N2CCCN2CCOCC2)cc1 (centres undefined)	23.1 µM [rising, single point]	29.1	
C/C(N)=C(/C#N)C(=O)CN1CCCCC1	2.31 µM [falling, full curve]	-17.6	
COc1ccc(C2C(C#N)=C(N)OC3=C2C(=O)CCC3)cc1OC (centres undefined)	0.116 µM [rising, full curve, poor fit]	17.2	
COc1ccc(-c2nc(CS(=O)CC(=O)NCc3ccc(C)cc3)c(C)o2)cc1OC (centres undefined)	6.51 µM [rising, single point]		

Further structures:

SMILES	AC50 [1]	cell number change [%]	AC50 [2]
Cc1ccc(S(=O)(=O)N2CCN(C(=O)CSc3ncn[nH]3)CC2)c(C)c1	6.51 µM [rising, single point]		
CCCOc1ccc(N2C(=O)C3ON(c4ccccc4)C(CCC)C3C2=O)cc1 (centres undefined)	6.51 µM [falling, single point]		
Cc1ccc(OCC(O)CN2CCN(CC(O)COC(C)C)CC2)c(C(C)(C)C)c1 (centres undefined)	29.1 µM [rising, single point]	3.05	
CCOc1cc(/C=C\[N+](=O)[O-])ccc1OCC(=O)N1CCOCC1	29.1 µM [falling, partial curve]	-93.1	8.2 µM [falling, partial curve]
CCc1ccc(-c2nc(CN3CCC(C(=O)N4CCN(c5ccccn5)CC4)CC3)c(C)o2)cc1	16.4 µM [falling, single point]	-41.3	29.1 µM [falling, single point]
COc1ccc2oc(C(=O)NN3C(C)CCCC3C)c(C)c2c1 (centres undefined)		-12.5	
O=C(NC(C(=O)O)c1ccccc1)c1ccccc1 (centres undefined)		4.98	
Cc1[nH]c2ccccc2c1C(=O)CN1CCCC(C)C1 (centres undefined)	0.13 µM [rising, full curve, poor fit]	12.4	
Cc1ccccc1C(=O)Nc1ccc(-c2nc3ccc(C(=O)c4ccccc4)cc3[nH]2)cc1	29.1 µM [falling, single point]	-26.3	0.326 µM [rising, single point]
Cc1cccn2c(=O)c(C(=O)NCCCN3CCCCC3C)c(O)nc12 (centres undefined)	29.1 µM [rising, single point]	58.8	29.1 µM [rising, single point]
CN(C)c1ccc(NC(=O)c2sc(SCC(=O)Nc3nccs3)nc2N)cc1	2.31 µM [rising, partial curve]	-8.86	
CC(C)(Oc1ccc(Cl)cc1)C(=O)NC1=NN(c2ccccc2)C(=O)C1		-58.6	16.4 µM [falling, single point]
CN(Cc1ccccc1)C(=O)c1ccc(NC(=O)Cc2cccc(NC(=O)C3CCCN(C(=O)C4CCC4)C3)c2)cc1 (centres undefined)	29.1 µM [falling, single point]	11.2	3.26 µM [falling, single point]
CCN1C(=O)[C@H]2[C@@H](c3ccccc3)N3C(=O)N(c4cccc(F)c4)C(=O)[C@@]3(CC(C)C)[C@H]2C1=O	2.31 µM [rising, single point]	11.7	
O=C(COc1ccc(NC(=O)c2ccccc2)cc1)c1ccccc1		-16.9	
C=CCNC(=O)NC(=O)COC(=O)COc1ccc(Br)cc1F	0.366 µM [rising, full curve]	-4.34	
COc1ccc(-c2cc(-c3cc(C)ccc3O)[nH]n2)cc1		-46.4	20.6 µM [falling, single point]
COC(=O)c1ccccc1N1CCS(=O)(=O)CC1	23.1 µM [falling, single point]		
Cc1ccc(N2CCN(CC3CC=CCC3)CC2)cc1 (centres undefined)	2.59 µM [falling, full curve]	-7.94	
O=C(/C=C/c1ccccc1Cl)Nc1ccc2c(c1)C(=O)NC2=O	6.51 µM [falling, partial curve]	-4.79	6.51 µM [falling, single point]

SMILES	AC50 [1]	cell number change [%]	AC50 [2]
Cc1cc(C)n(-c2ccc(C(=O)OCC(=O)Nc3cc(Cl)ccc3[N+](=O)[O-])cc2)n1		-6.97	
O=[N+]([O-])c1cc([N+](=O)[O-])c(Oc2cccnc2Br)cc1NN1CCCCC1		-2.91	
CCOc1nc(C)ccc1-c1noc(C)n1	0.00411 µM [rising, full curve, poor fit]	-0.978	
O=C(/C=C/c1ccccc1)NC(=S)Nc1ncccn1	3.66 µM [rising, partial curve, poor fit]	12.6	
CC1CCCCC1NC(=O)COn1nnc2ccc(Cl)cc21 (centres undefined)	0.00461 µM [falling, full curve, poor fit]	-1.82	
Cc1ccc(NC(=O)CSCC(=O)Nc2cc(C(F)(F)F)ccc2N2CCOCC2)cc1	2.59 µM [rising, single point]	7.24	2.31 µM [rising, single point]
O=C(CNCc1ccccc1)Nc1ccc(Oc2ccccc2)cc1	25.9 µM [falling, single point]	-11.2	
CCCc1nnc(NC(=O)c2ccc(N3C(=O)C4C5C=CC(C5)C4C3=O)cc2)s1 (centres undefined)	0.00461 µM [rising, full curve, poor fit]	-11.9	
COc1ccc(/C=C(\NC(=O)c2ccc(OC)cc2)C(=O)N2CCCCC2)cc1	0.0058 µM [rising, full curve, poor fit]	-9.07	
O=C(COC(=O)c1ccco1)Nc1ccc(Br)cc1	16.4 µM [falling, single point]	-4.8	
O=C(Nc1nc(-c2ccccc2)cs1)c1ccccc1NS(=O)(=O)c1ccc(F)cc1		-26.7	
COc1ccc(C)cc1S(=O)(=O)N(CC(=O)Nc1cccc([N+](=O)[O-])c1)c1ccc(C)c(C)c1	5.8 µM [rising, full curve]	19.1	
CCOC(=O)C1=C(CSc2nc(-c3ccncc3)ccc2C#N)OC(N)=C(C#N)C1c1ccc(OC)cc1 (centres undefined)		58.9	0.082 µM [rising, full curve]
CC(=O)Nc1ccc(S(=O)(=O)NC(C)C(=O)NCC(c2ccco2)N(C)C)cc1 (centres undefined)		6.43	
COC(=O)Cc1ccc(NC(=S)N2CCN(C(=O)C3CCCO3)CC2)cc1 (centres undefined)		28.8	
CCc1cc(C(=O)Nc2cc(S(=O)(=O)N(C)C)ccc2C)sc1C	29.1 µM [falling, single point]	-59.9	6.51 µM [falling, partial curve]
COc1ccc(N)c2c1C(=O)c1ccccc1C2=O		97	29.1 µM [rising, single point]
CC1CCN(C(=O)c2cccc(S(=O)(=O)N3CCN(c4ccccc4)CC3)c2)CC1		22.5	4.61 µM [rising, full curve, poor fit]
COCCNC(=O)C1c2cc(OC)c(OC)cc2C(=O)N(C)C1c1cccnc1 (centres undefined)	6.51 µM [rising, single point]	-16.9	3.26 µM [rising, partial curve]
O=C(Nc1ccc(S(=O)(=O)N2CCCCC2)cc1)c1ccccc1F	29.1 µM [falling, single point]	3.78	
